Test results from the supplement of paper PMC7661543.
The effect of the compound repeats well; differences between the knockouts mostly do not.

Tested on: HCC-38
Assay: relative cell number vs DMSO control (72 h) (% of DMSO); higher = less growth inhibition (more cells)
Experimental: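 QMAP-Seq: a pool of 5 breast cancer cell lines (ZR-75-1, SKBR3, HCC-38, MDA-MB-231, BT-20), each carrying 12 doxycycline-inducible Cas9 sgRNA perturbations (11 knockouts plus non-targeting sgNT), was treated with compounds for 72 h at four 10-fold doses (10 nM-10 uM or 1 nM-1 uM range). Barcodes were amplified and sequenced, and cell number was interpolated from 293T spike-in standard curves. The result is expressed as % of the median of DMSO wells. Two biological replicates.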

Clc1ccc(C2(c3ccc(-c4cn[nH]c4)cc3)CCNCC2)cc1 [AT7867]
Conditions	relative cell number
sgRNA knockout: sgATF3, 10 nM	85.2
sgRNA knockout: sgATF3, 100 nM	73.5
sgRNA knockout: sgATF3, 1000 nM	42
sgRNA knockout: sgATF3, 10000 nM	51.4
sgRNA knockout: sgATF4, 10 nM	86.31
sgRNA knockout: sgATF4, 100 nM	66.9
sgRNA knockout: sgATF4, 1000 nM	46.1
sgRNA knockout: sgATF4, 10000 nM	51.5
sgRNA knockout: sgATF6, 10 nM	83.1
sgRNA knockout: sgATF6, 100 nM	73.6
sgRNA knockout: sgATF6, 1000 nM	35.5
sgRNA knockout: sgATF6, 10000 nM	48.5
sgRNA knockout: sgATG7, 10 nM	87.4
sgRNA knockout: sgATG7, 100 nM	69.5
sgRNA knockout: sgATG7, 1000 nM	46.2
sgRNA knockout: sgATG7, 10000 nM	51
sgRNA knockout: sgERN1, 10 nM	91.1
sgRNA knockout: sgERN1, 100 nM	65.2
sgRNA knockout: sgERN1, 1000 nM	46.7
sgRNA knockout: sgERN1, 10000 nM	55
sgRNA knockout: sgHSF1, 10 nM	84.7
sgRNA knockout: sgHSF1, 100 nM	72.27
sgRNA knockout: sgHSF1, 1000 nM	35.6
sgRNA knockout: sgHSF1, 10000 nM	53.7
sgRNA knockout: sgHSF2, 10 nM	84.7
sgRNA knockout: sgHSF2, 100 nM	71.4
sgRNA knockout: sgHSF2, 1000 nM	44
sgRNA knockout: sgHSF2, 10000 nM	59
sgRNA knockout: sgKEAP1, 10 nM	93.7
sgRNA knockout: sgKEAP1, 100 nM	67
sgRNA knockout: sgKEAP1, 1000 nM	48.3
sgRNA knockout: sgKEAP1, 10000 nM	37.1
sgRNA knockout: sgNFE2L2, 10 nM	89
sgRNA knockout: sgNFE2L2, 100 nM	67.3
sgRNA knockout: sgNFE2L2, 1000 nM	42.3
sgRNA knockout: sgNFE2L2, 10000 nM	54.9
sgRNA knockout: sgSLC35F2, 10 nM	89.8
sgRNA knockout: sgSLC35F2, 100 nM	70.4
sgRNA knockout: sgSLC35F2, 1000 nM	43.1
sgRNA knockout: sgSLC35F2, 10000 nM	52
sgRNA knockout: sgXBP1, 10 nM	89.9
sgRNA knockout: sgXBP1, 100 nM	73
sgRNA knockout: sgXBP1, 1000 nM	47.1
sgRNA knockout: sgXBP1, 10000 nM	52.5

COc1cccc2c1C(=O)c1c(O)c3c(c(O)c1C2=O)C[C@@](O)(C(=O)CO)C[C@@H]3O[C@H]1C[C@H](N)[C@H](O)[C@H](C)O1 [Doxorubicin]
Conditions	relative cell number
sgRNA knockout: sgATF3, 10 nM	85.6
sgRNA knockout: sgATF3, 100 nM	38.4
sgRNA knockout: sgATF3, 1000 nM	19
sgRNA knockout: sgATF3, 10000 nM	13
sgRNA knockout: sgATF4, 10 nM	80.9
sgRNA knockout: sgATF4, 100 nM	40.1
sgRNA knockout: sgATF4, 1000 nM	21.8
sgRNA knockout: sgATF4, 10000 nM	12.3
sgRNA knockout: sgATF6, 10 nM	81.1
sgRNA knockout: sgATF6, 100 nM	46.7
sgRNA knockout: sgATF6, 1000 nM	20.9
sgRNA knockout: sgATF6, 10000 nM	16.4
sgRNA knockout: sgATG7, 10 nM	76.7
sgRNA knockout: sgATG7, 100 nM	36
sgRNA knockout: sgATG7, 1000 nM	18.01
sgRNA knockout: sgATG7, 10000 nM	8.76
sgRNA knockout: sgERN1, 10 nM	81.1
sgRNA knockout: sgERN1, 100 nM	39.7
sgRNA knockout: sgERN1, 1000 nM	22.4
sgRNA knockout: sgERN1, 10000 nM	14.1
sgRNA knockout: sgHSF1, 10 nM	71.7
sgRNA knockout: sgHSF1, 100 nM	44.1
sgRNA knockout: sgHSF1, 1000 nM	15.6
sgRNA knockout: sgHSF1, 10000 nM	11
sgRNA knockout: sgHSF2, 10 nM	81.6
sgRNA knockout: sgHSF2, 100 nM	40.93
sgRNA knockout: sgHSF2, 1000 nM	19.8
sgRNA knockout: sgHSF2, 10000 nM	12.7
sgRNA knockout: sgKEAP1, 10 nM	94
sgRNA knockout: sgKEAP1, 100 nM	40.3
sgRNA knockout: sgKEAP1, 1000 nM	22.9
sgRNA knockout: sgKEAP1, 10000 nM	13.8
sgRNA knockout: sgNFE2L2, 10 nM	76.3
sgRNA knockout: sgNFE2L2, 100 nM	38.4
sgRNA knockout: sgNFE2L2, 1000 nM	22.9
sgRNA knockout: sgNFE2L2, 10000 nM	11.1
sgRNA knockout: sgSLC35F2, 10 nM	80.53
sgRNA knockout: sgSLC35F2, 100 nM	34.3
sgRNA knockout: sgSLC35F2, 1000 nM	27
sgRNA knockout: sgSLC35F2, 10000 nM	11.6
sgRNA knockout: sgXBP1, 10 nM	82.1
sgRNA knockout: sgXBP1, 100 nM	38.3
sgRNA knockout: sgXBP1, 1000 nM	21
sgRNA knockout: sgXBP1, 10000 nM	10
